Measurements reported in US8815944B2, “Pharmaceutical composition with gelling properties containing a tyrosine derivative” (Ethypharm, priority 2008, dated 2014).
Some results were stated once for a whole list of compounds, not compound by compound.

Assay: Differential scanning calorimetry (DSC) of organogels in safflower oil
Format: physicochemical
Details: gels in safflower oil, concentrations as low as 1% (w/w); FIG. 2
Method: Organogelators at a concentration of 5% (w/w) were solubilized in safflower oil at high temperature (>80° C.) and gels were obtained by cooling the mixture.
The gels were characterized by differential scanning calorimetry (DSC) to obtain gel-solution transition temperatures (TGS) and enthalpy values of the transition (ΔH). Briefly, thermograms of gels were collected on a 2910 TA Instruments DSC system (New Castle, Del.). The instrument was calibrated with indium. Gels were weighed into aluminum pans that were subsequently sealed. Temperature was scanned between 5 and 90° C. at 10° C./min. The reported gel-sol transition temperatures (TGS) and enthalpies (ΔH) corresponded to the maximum and the area of the endothermic peaks respectively.

Row | Compound | TGS at low organogelator concentration
1 | CCCCCCCCCCCCCCCCCCCCCC(=O)N[C@@H](Cc1ccc(O)cc1)C(=O)OC [B-Tyr-OCH3, N-Behenoyl L-tyrosine methyl ester] | > 37 °C
2 | CCCCCCCCCCCCCCCCCC(=O)N[C@@H](Cc1ccc(O)cc1)C(=O)OC [S-Tyr-OCH3, N-Stearoyl L-tyrosine methyl ester] | > 37 °C
